{"source": "PubChem BioAssay AID720505 (Drosophila RNAi Screening Center, 2013)", "purpose": "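Genes needed for store-operated calcium entry in fly cells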 (primary screen)", "system": "Drosophila S2R+ cells", "knock-down reagent": "long dsRNA against Drosophila genes", "treatment": "thapsigargin (2 µM) in calcium-free buffer to empty internal stores, then 2 mM calcium added back", "read-out": "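Stores emptied by 2 µM thapsigargin without calcium, then 2 mM calcium re-added; fluo-4 fluorescence followed by FLIPR in 384-well plates, per-well averaged endpoint, raw; two screen passes, some wells retested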", "direction": "calcium signal and retest calcium signal: higher = more calcium entry after store depletion", "rule for the call": "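About 1500 genes called as lowering calcium entry, by varying amounts, judged against per-plate control wells with STIM1 as positive and Rho1 as negative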", "calls": "active = called as lowering calcium entry; inactive = not called", "note": "The screen tested about 20,000 reagents; below is a random part of those that have a named target and a result. In the full data, about 2,100 (10%) are marked active. 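Raw plate signals without normalisation; calls rest on control-based scores that were not deposited; replicate 2 separates called from uncalled poorly.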 Not stated in the record: the amount of reagent, the time to read-out."}
{"gene": "CG30416", "DRSC id": "DRSC04565", "calcium signal, replicate 1": 62.8, "calcium signal, replicate 2": 201, "outcome": "active"}
{"gene": "Chsy (Chondroitin sulfate synthase)", "DRSC id": "DRSC20175", "calcium signal, replicate 1": 94.1, "calcium signal, replicate 2": 121, "outcome": "inactive"}
{"gene": "Chsy (Chondroitin sulfate synthase)", "DRSC id": "DRSC20176", "calcium signal, replicate 1": 90.8, "calcium signal, replicate 2": 116, "retest calcium signal, replicate 1": 113, "retest calcium signal, replicate 2": 83.1, "outcome": "inactive"}
{"gene": "Cyp6t1 (Cytochrome P450 6t1)", "DRSC id": "DRSC20564", "calcium signal, replicate 1": 108, "calcium signal, replicate 2": 87.8, "outcome": "inactive"}
{"gene": "stai (stathmin)", "DRSC id": "DRSC02920", "calcium signal, replicate 1": 166, "calcium signal, replicate 2": 79.7, "outcome": "inactive"}
{"gene": "stai (stathmin)", "DRSC id": "DRSC22235", "calcium signal, replicate 1": 82.9, "calcium signal, replicate 2": 185, "outcome": "inactive"}
{"gene": "CG14710", "DRSC id": "DRSC14933", "calcium signal, replicate 1": 128, "calcium signal, replicate 2": 110, "outcome": "inactive"}
{"gene": "CG2061", "DRSC id": "DRSC19348", "calcium signal, replicate 1": 115, "calcium signal, replicate 2": 87.7, "outcome": "inactive"}
{"gene": "Nup107 (Nucleoporin 107kD)", "DRSC id": "DRSC01999", "calcium signal, replicate 1": 72.9, "calcium signal, replicate 2": 96, "outcome": "active"}
{"gene": "Jon66Cii (Jonah 66Cii)", "DRSC id": "DRSC10778", "calcium signal, replicate 1": 99.8, "calcium signal, replicate 2": 67.9, "outcome": "inactive"}
{"gene": "Mvl (Malvolio)", "DRSC id": "DRSC16752", "calcium signal, replicate 1": 144, "calcium signal, replicate 2": 211, "outcome": "inactive"}
{"gene": "Spase22-23 (Spase 22/23-subunit)", "DRSC id": "DRSC15857", "calcium signal, replicate 1": 95.6, "calcium signal, replicate 2": 223, "outcome": "active"}
{"gene": "CG31650", "DRSC id": "DRSC03140", "calcium signal, replicate 1": 105, "calcium signal, replicate 2": 112, "retest calcium signal, replicate 1": 104, "retest calcium signal, replicate 2": 112, "outcome": "inactive"}
{"gene": "step (steppke)", "DRSC id": "DRSC03694", "calcium signal, replicate 1": 78.5, "calcium signal, replicate 2": 75.7, "outcome": "active"}
{"gene": "step (steppke)", "DRSC id": "DRSC03699", "calcium signal, replicate 1": 127, "calcium signal, replicate 2": 106, "outcome": "inactive"}
{"gene": "Kr-h2 (Kruppel homolog 2)", "DRSC id": "DRSC03356", "calcium signal, replicate 1": 155, "calcium signal, replicate 2": 91.3, "outcome": "inactive"}
{"gene": "CG11398", "DRSC id": "DRSC18625", "calcium signal, replicate 1": 125, "calcium signal, replicate 2": 124, "outcome": "inactive"}
{"gene": "CG15657", "DRSC id": "DRSC04248", "calcium signal, replicate 1": 151, "calcium signal, replicate 2": 88, "outcome": "inactive"}
{"gene": "CG15629", "DRSC id": "DRSC00464", "calcium signal, replicate 1": 196, "calcium signal, replicate 2": 112, "outcome": "inactive"}
{"gene": "CG15631", "DRSC id": "DRSC00466", "calcium signal, replicate 1": 201, "calcium signal, replicate 2": 119, "outcome": "inactive"}
{"gene": "CG9649", "DRSC id": "DRSC16534", "calcium signal, replicate 1": 101, "calcium signal, replicate 2": 167, "outcome": "inactive"}
{"gene": "KdelR (KDEL receptor)", "DRSC id": "DRSC03353", "calcium signal, replicate 1": 118, "calcium signal, replicate 2": 89.3, "outcome": "inactive"}
{"gene": "dsx (doublesex)", "DRSC id": "DRSC16934", "calcium signal, replicate 1": 95.1, "calcium signal, replicate 2": 97.7, "retest calcium signal, replicate 1": 180, "retest calcium signal, replicate 2": 131, "outcome": "inactive"}
{"gene": "dsx (doublesex)", "DRSC id": "DRSC21495", "calcium signal, replicate 1": 108, "calcium signal, replicate 2": 121, "outcome": "inactive"}
{"gene": "CG16965", "DRSC id": "DRSC02547", "calcium signal, replicate 1": 96.1, "calcium signal, replicate 2": 109, "outcome": "inactive"}
{"gene": "Ype (Yippee)", "DRSC id": "DRSC20301", "calcium signal, replicate 1": 170, "calcium signal, replicate 2": 133, "outcome": "inactive"}
{"gene": "Nxf3 (Nuclear export factor 3)", "DRSC id": "DRSC21749", "calcium signal, replicate 1": 142, "calcium signal, replicate 2": 138, "outcome": "inactive"}
{"gene": "CG5535", "DRSC id": "DRSC10514", "calcium signal, replicate 1": 133, "calcium signal, replicate 2": 88.5, "outcome": "inactive"}

Part of the list above, showing only “calcium signal, replicate 1”.
Nup107 (Nucleoporin 107kD) [DRSC01999]: 72.9
Jon66Cii (Jonah 66Cii) [DRSC10778]: 99.8
Mvl (Malvolio) [DRSC16752]: 144
